Assay results published in the supplement of paper PMC6078165.
± gives the standard deviation of the averaged measurements. Values are relative to the signal before dosing, not to a vehicle control; the signal also falls without drug.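 Fibroblast labels name human fibroblasts: mostly primary ones from tissues such as uterus (C12385, HUF), lung (H6013), bone (Hs27A), adrenal (HADF) and skin (WS1), plus mammary HMF and breast cancer-associated Hs343T. The cancer cells are basal-like or mesenchymal-like triple-negative breast cancer lines. The paper calls a changed response a hit when it shifts by more than 3x the replicate standard deviation. The tissue of the other fibroblasts is not given here.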

Tested on: MDAMB468
Assay: relative JC-1 red fluorescence (viability) vs pre-drug, coculture with fibroblast (fraction); higher = more viable cancer cells
Protocol: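 JC-1 labelled TNBC cells cocultured 1:1 (1,500 cells each) with CellTrace Violet stained primary or stromal fibroblasts in 384-well plates in FluoroBrite medium, treated with one of 42 anticancer drugs at 0.1, 1, 10 or 100 uM. JC-1 red fluorescence (mitochondrial integrity in cancer cells only) was read by plate reader every 8 h for 72 h. Values are normalised to each well's pre-drug value. The stock of one drug was tenfold lower, so its dose labels may be too high.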

CN(Cc1cnc2nc(N)nc(N)c2n1)c1ccc(C(=O)N[C@@H](CCC(=O)O)C(=O)O)cc1 [Methotrexate]
relative JC-1 red fluorescence
Conditions | 8 h | 16 h | 24 h | 32 h | 40 h | 48 h | 56 h | 64 h | 72 h
0.1 µM, coculture fibroblast: C12385 | 0.891 ± 0.016 | 0.81 ± 0.0072 | 0.779 ± 0.017 | 0.732 ± 0.016 | 0.6825 ± 0.0059 | 0.677 ± 0.013 | 0.628 ± 0.0092 | 0.615 ± 0.017 | 0.616 ± 0.014
0.1 µM, coculture fibroblast: H6013 | 0.898 ± 0.0069 | 0.838 ± 0.01 | 0.792 ± 0.00086 | 0.7774 ± 0.0075 | 0.742 ± 0.0022 | 0.75431 ± 0.00052 | 0.7292 ± 0.0013 | 0.729 ± 0.0084 | 0.68 ± 0.014
0.1 µM, coculture fibroblast: H6019 | 0.806 ± 0.019 | 0.793 ± 0.029 | 0.783 ± 0.051 | 0.735 ± 0.051 | 0.701 ± 0.062 | 0.682 ± 0.071 | 0.638 ± 0.057 | 0.61 ± 0.071 | 0.585 ± 0.081
0.1 µM, coculture fibroblast: H6076 | 0.8 ± 0.17 | 0.863 ± 0.095 | 0.867 ± 0.012 | 0.8784 ± 0.0038 | 0.76 ± 0.035 | 0.852 ± 0.11 | 0.812 ± 0.14 | 0.796 ± 0.13 | 0.817 ± 0.082
0.1 µM, coculture fibroblast: H6231 | 0.851 ± 0.027 | 0.857 ± 0.016 | 0.9157 ± 0.0031 | 0.8594 ± 0.007 | 0.818 ± 0.013 | 0.7892 ± 0.0042 | 0.725 ± 0.014 | 0.686 ± 0.02 | 0.663 ± 0.024
0.1 µM, coculture fibroblast: HADF | 0.895 ± 0.033 | 0.827 ± 0.015 | 0.7659 ± 0.0045 | 0.755 ± 0.013 | 0.71 ± 0.024 | 0.706 ± 0.04 | 0.653 ± 0.036 | 0.649 ± 0.04 | 0.6 ± 0.034
0.1 µM, coculture fibroblast: HCFa | 0.8942 ± 0.0082 | 0.847 ± 0.032 | 0.814 ± 0.035 | 0.788 ± 0.047 | 0.727 ± 0.061 | 0.723 ± 0.077 | 0.671 ± 0.077 | 0.63 ± 0.077 | 0.579 ± 0.072
0.1 µM, coculture fibroblast: HCPF | 0.895 ± 0.024 | 0.982 ± 0.019 | 0.905 ± 0.024 | 0.878 ± 0.051 | 0.817 ± 0.059 | 0.79 ± 0.068 | 0.731 ± 0.051 | 0.714 ± 0.058 | 0.693 ± 0.079
0.1 µM, coculture fibroblast: HHSteC | 0.8784 ± 0.0055 | 0.852 ± 0.014 | 0.813 ± 0.02 | 0.782 ± 0.031 | 0.751 ± 0.047 | 0.745 ± 0.041 | 0.681 ± 0.048 | 0.645 ± 0.061 | 0.584 ± 0.068
0.1 µM, coculture fibroblast: HMF | 0.861 ± 0.021 | 0.9751 ± 0.0027 | 0.904 ± 0.02 | 0.87 ± 0.025 | 0.807 ± 0.028 | 0.783 ± 0.025 | 0.737 ± 0.021 | 0.711 ± 0.0092 | 0.693 ± 0.014
0.1 µM, coculture fibroblast: HPFa | 0.955 ± 0.013 | 0.891 ± 0.024 | 0.844 ± 0.014 | 0.802 ± 0.018 | 0.761 ± 0.011 | 0.759 ± 0.018 | 0.693 ± 0.0034 | 0.679 ± 0.012 | 0.625 ± 0.0093
0.1 µM, coculture fibroblast: HUF | 0.9065 ± 0.003 | 0.838 ± 0.018 | 0.805 ± 0.0097 | 0.7494 ± 0.0062 | 0.695 ± 0.0073 | 0.668 ± 0.016 | 0.615 ± 0.017 | 0.5841 ± 0.0037 | 0.55698 ± 0.00051
0.1 µM, coculture fibroblast: Hs5 | 0.853 ± 0.1 | 0.916 ± 0.1 | 0.834 ± 0.11 | 0.876 ± 0.015 | 0.889 ± 0.13 | 0.865 ± 0.14 | 0.822 ± 0.15 | 0.785 ± 0.16 | 0.821 ± 0.18
0.1 µM, coculture fibroblast: Hs27A | 0.914 ± 0.067 | 0.875 ± 0.094 | 0.838 ± 0.11 | 0.827 ± 0.12 | 0.742 ± 0.12 | 0.738 ± 0.13 | 0.692 ± 0.13 | 0.682 ± 0.12 | 0.656 ± 0.11
0.1 µM, coculture fibroblast: Hs343T | 0.895 ± 0.034 | 0.9595 ± 0.0051 | 0.898 ± 0.015 | 0.8543 ± 0.0057 | 0.777 ± 0.013 | 0.7407 ± 0.0027 | 0.6923 ± 0.0023 | 0.6748 ± 0.0046 | 0.653 ± 0.011
0.1 µM, coculture fibroblast: WS1 | 0.882 ± 0.0096 | 0.8103 ± 0.0066 | 0.7703 ± 0.0029 | 0.718 ± 0.0077 | 0.658 ± 0.0097 | 0.623 ± 0.021 | 0.587 ± 0.024 | 0.564 ± 0.022 | 0.56 ± 0.011
1 µM, coculture fibroblast: C12385 | 0.919 ± 0.028 | 0.816 ± 0.028 | 0.822 ± 0.034 | 0.79 ± 0.023 | 0.752 ± 0.03 | 0.744 ± 0.03 | 0.708 ± 0.035 | 0.699 ± 0.036 | 0.693 ± 0.038
1 µM, coculture fibroblast: H6013 | 0.9018 ± 0.0066 | 0.8535 ± 0.003 | 0.831 ± 0.0047 | 0.8283 ± 0.0021 | 0.8209 ± 0.0042 | 0.845 ± 0.011 | 0.831 ± 0.01 | 0.823 ± 0.019 | 0.757 ± 0.017
1 µM, coculture fibroblast: H6019 | 0.7884 ± 0.0028 | 0.7444 ± 0.0028 | 0.702 ± 0.011 | 0.641 ± 0.017 | 0.593 ± 0.019 | 0.575 ± 0.023 | 0.525 ± 0.019 | 0.494 ± 0.027 | 0.471 ± 0.029
1 µM, coculture fibroblast: H6076 | 0.9037 ± 0.0064 | 0.887 ± 0.012 | 0.8421 ± 0.008 | 0.8248 ± 0.0023 | 0.7597 ± 0.0049 | 0.741 ± 0.024 | 0.697 ± 0.042 | 0.662 ± 0.035 | 0.717 ± 0.049
1 µM, coculture fibroblast: H6231 | 0.8515 ± 0.0019 | 0.934 ± 0.014 | 0.838 ± 0.024 | 0.82 ± 0.026 | 0.766 ± 0.023 | 0.738 ± 0.022 | 0.678 ± 0.028 | 0.65 ± 0.025 | 0.631 ± 0.011
1 µM, coculture fibroblast: HADF | 0.9289 ± 0.0075 | 0.842 ± 0.014 | 0.787 ± 0.019 | 0.7668 ± 0.0058 | 0.7 ± 0.012 | 0.686 ± 0.015 | 0.641 ± 0.014 | 0.629 ± 0.024 | 0.581 ± 0.021
1 µM, coculture fibroblast: HCFa | 0.883 ± 0.026 | 0.8226 ± 0.0039 | 0.7656 ± 0.0051 | 0.737 ± 0.0087 | 0.669 ± 0.016 | 0.657 ± 0.008 | 0.599 ± 0.012 | 0.56902 ± 0.00014 | 0.5082 ± 0.00063
1 µM, coculture fibroblast: HCPF | 0.884 ± 0.018 | 0.916 ± 0.035 | 0.829 ± 0.021 | 0.798 ± 0.026 | 0.731 ± 0.034 | 0.698 ± 0.033 | 0.655 ± 0.031 | 0.637 ± 0.025 | 0.628 ± 0.023
1 µM, coculture fibroblast: HHSteC | 0.909 ± 0.02 | 0.8519 ± 0.008 | 0.804 ± 0.023 | 0.765 ± 0.031 | 0.732 ± 0.022 | 0.72 ± 0.026 | 0.665 ± 0.011 | 0.632 ± 0.012 | 0.576 ± 0.0091
1 µM, coculture fibroblast: HMF | 0.876 ± 0.017 | 0.926 ± 0.025 | 0.851 ± 0.023 | 0.812 ± 0.0084 | 0.746 ± 0.012 | 0.71866 ± 0.00025 | 0.669 ± 0.0077 | 0.648 ± 0.021 | 0.62 ± 0.026
1 µM, coculture fibroblast: HPFa | 0.951 ± 0.02 | 0.861 ± 0.036 | 0.816 ± 0.018 | 0.7673 ± 0.00091 | 0.715 ± 0.0088 | 0.707 ± 0.014 | 0.643 ± 0.011 | 0.6184 ± 0.005 | 0.5593 ± 0.00084
1 µM, coculture fibroblast: HUF | 0.918 ± 0.0045 | 0.8274 ± 0.0051 | 0.776 ± 0.0048 | 0.7056 ± 0.0052 | 0.6599 ± 0.005 | 0.631 ± 0.0086 | 0.5853 ± 0.00084 | 0.5703 ± 0.0016 | 0.5546 ± 0.00081
1 µM, coculture fibroblast: Hs5 | 0.852 ± 0.041 | 0.934 ± 0.012 | 0.893 ± 0.013 | 0.854 ± 0.022 | 0.781 ± 0.028 | 0.736 ± 0.035 | 0.665 ± 0.021 | 0.6273 ± 0.004 | 0.644 ± 0.0072
1 µM, coculture fibroblast: Hs27A | 0.865 ± 0.011 | 0.8016 ± 0.0067 | 0.735 ± 0.0081 | 0.725 ± 0.014 | 0.668 ± 0.032 | 0.663 ± 0.043 | 0.625 ± 0.056 | 0.608 ± 0.059 | 0.57 ± 0.053
1 µM, coculture fibroblast: Hs343T | 0.873 ± 0.009 | 0.897 ± 0.024 | 0.8249 ± 0.0057 | 0.793 ± 0.025 | 0.703 ± 0.026 | 0.672 ± 0.043 | 0.613 ± 0.062 | 0.59 ± 0.065 | 0.565 ± 0.06
1 µM, coculture fibroblast: WS1 | 0.897 ± 0.0033 | 0.7981 ± 0.0053 | 0.732 ± 0.016 | 0.655 ± 0.024 | 0.609 ± 0.039 | 0.576 ± 0.053 | 0.546 ± 0.063 | 0.513 ± 0.058 | 0.502 ± 0.053
